Data taken from the supplement of paper PMC10849652.
This is one part of the list.

By UniProt entry, the sequences of proteins in these tests, tags left out. Where a name states a change or a piece, a line headed by the entry shows the natural chain unless it says otherwise.
UniProt Q96T37: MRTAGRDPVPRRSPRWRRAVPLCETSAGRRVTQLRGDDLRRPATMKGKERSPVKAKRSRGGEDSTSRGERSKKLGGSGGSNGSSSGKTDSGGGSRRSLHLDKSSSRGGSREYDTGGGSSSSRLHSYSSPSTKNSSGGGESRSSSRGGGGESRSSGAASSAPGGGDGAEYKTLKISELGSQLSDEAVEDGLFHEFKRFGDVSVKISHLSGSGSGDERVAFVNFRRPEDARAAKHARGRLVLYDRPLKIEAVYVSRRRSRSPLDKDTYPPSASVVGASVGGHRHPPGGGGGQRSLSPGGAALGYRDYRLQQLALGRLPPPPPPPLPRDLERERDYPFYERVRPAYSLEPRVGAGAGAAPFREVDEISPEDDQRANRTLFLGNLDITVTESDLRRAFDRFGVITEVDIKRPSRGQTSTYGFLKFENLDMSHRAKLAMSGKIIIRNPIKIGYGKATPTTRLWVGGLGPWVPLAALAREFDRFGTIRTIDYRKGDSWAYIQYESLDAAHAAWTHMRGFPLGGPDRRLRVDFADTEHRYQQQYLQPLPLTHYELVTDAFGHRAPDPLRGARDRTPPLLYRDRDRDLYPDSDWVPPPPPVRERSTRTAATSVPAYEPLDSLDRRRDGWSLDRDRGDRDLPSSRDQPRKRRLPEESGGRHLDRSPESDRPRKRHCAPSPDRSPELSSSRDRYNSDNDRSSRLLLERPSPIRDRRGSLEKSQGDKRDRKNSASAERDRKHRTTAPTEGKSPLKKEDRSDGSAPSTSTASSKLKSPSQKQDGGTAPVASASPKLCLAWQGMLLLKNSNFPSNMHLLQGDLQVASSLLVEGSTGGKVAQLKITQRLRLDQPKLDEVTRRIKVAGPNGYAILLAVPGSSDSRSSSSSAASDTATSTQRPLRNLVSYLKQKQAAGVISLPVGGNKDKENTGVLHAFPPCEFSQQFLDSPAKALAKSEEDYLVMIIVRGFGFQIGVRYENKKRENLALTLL
UniProt A6NED2: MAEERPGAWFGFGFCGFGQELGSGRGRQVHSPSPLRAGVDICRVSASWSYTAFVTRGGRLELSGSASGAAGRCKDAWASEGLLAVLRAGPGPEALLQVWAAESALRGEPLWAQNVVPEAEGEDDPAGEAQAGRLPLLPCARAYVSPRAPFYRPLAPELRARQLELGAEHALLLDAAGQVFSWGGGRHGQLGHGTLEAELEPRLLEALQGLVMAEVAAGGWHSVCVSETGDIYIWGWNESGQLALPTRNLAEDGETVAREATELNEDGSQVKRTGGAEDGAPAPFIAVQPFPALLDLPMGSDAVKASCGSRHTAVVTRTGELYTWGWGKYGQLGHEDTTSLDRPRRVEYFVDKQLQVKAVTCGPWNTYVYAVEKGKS
UniProt Q00765: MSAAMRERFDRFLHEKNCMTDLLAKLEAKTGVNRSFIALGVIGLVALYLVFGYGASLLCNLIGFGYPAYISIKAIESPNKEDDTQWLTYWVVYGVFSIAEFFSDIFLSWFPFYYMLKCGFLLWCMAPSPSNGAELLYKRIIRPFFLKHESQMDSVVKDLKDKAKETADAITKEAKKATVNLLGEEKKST
UniProt Q9BYM8: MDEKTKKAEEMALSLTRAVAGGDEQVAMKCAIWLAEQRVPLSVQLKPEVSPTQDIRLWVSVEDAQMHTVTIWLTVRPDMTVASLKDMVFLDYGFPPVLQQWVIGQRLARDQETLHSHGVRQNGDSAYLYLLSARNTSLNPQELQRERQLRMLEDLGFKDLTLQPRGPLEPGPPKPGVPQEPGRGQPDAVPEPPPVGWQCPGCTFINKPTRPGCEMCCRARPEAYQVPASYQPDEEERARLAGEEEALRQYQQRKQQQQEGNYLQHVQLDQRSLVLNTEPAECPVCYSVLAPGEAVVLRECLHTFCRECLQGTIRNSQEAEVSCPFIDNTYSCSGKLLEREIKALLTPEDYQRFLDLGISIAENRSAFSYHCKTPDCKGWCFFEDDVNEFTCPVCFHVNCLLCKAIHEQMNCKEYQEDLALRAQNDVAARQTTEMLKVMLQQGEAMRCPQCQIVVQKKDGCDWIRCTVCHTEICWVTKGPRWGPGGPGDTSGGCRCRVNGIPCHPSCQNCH
UniProt Q86VR2, whole entry, looked up: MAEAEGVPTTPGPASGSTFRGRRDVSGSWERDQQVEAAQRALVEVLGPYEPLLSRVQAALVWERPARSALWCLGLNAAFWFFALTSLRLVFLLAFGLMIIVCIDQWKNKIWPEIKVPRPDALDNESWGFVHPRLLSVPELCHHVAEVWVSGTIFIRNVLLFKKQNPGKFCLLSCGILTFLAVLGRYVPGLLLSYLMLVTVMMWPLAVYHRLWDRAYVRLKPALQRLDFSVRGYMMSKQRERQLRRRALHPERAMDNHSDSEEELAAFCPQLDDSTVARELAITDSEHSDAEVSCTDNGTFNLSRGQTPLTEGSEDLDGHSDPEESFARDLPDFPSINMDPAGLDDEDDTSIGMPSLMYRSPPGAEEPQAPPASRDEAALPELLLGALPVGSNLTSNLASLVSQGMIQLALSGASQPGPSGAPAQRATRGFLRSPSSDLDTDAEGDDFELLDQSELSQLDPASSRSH
UniProt Q86U06: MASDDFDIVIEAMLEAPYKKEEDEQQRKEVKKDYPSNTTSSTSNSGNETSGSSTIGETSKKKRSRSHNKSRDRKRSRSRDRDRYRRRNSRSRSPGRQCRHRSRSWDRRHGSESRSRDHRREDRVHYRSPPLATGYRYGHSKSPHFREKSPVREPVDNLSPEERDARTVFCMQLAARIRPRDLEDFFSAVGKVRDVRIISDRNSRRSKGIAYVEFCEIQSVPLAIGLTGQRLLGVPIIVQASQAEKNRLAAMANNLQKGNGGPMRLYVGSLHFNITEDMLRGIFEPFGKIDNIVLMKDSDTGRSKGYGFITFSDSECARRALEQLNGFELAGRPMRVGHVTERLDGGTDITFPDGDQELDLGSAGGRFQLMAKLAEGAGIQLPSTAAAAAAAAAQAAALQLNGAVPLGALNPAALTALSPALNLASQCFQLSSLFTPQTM
UniProt Q9Y4C8: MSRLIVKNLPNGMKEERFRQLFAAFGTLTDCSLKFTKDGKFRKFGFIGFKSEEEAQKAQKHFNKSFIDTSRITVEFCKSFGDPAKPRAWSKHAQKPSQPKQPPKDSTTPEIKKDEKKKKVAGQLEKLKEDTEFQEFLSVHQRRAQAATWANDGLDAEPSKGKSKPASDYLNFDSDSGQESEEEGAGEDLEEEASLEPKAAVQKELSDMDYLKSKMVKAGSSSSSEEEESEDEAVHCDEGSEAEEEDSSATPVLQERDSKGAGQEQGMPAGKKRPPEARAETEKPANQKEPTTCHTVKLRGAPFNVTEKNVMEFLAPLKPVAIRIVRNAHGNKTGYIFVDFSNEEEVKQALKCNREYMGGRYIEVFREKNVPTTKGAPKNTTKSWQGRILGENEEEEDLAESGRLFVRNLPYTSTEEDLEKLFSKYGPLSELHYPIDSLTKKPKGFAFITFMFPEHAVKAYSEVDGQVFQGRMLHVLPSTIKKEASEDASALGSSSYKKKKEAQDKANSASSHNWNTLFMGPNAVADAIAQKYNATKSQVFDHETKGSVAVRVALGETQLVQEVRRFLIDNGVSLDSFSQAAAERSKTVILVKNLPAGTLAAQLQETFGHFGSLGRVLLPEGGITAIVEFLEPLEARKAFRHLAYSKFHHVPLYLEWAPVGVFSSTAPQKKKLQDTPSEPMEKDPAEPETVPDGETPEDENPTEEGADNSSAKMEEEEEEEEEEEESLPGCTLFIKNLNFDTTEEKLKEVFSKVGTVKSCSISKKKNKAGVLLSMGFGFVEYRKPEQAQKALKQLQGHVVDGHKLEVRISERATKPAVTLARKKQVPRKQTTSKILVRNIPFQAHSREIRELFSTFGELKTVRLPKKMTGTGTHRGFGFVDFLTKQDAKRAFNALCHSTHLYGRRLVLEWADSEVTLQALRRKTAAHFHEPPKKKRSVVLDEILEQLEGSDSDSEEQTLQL
UniProt Q96I51, whole entry, looked up: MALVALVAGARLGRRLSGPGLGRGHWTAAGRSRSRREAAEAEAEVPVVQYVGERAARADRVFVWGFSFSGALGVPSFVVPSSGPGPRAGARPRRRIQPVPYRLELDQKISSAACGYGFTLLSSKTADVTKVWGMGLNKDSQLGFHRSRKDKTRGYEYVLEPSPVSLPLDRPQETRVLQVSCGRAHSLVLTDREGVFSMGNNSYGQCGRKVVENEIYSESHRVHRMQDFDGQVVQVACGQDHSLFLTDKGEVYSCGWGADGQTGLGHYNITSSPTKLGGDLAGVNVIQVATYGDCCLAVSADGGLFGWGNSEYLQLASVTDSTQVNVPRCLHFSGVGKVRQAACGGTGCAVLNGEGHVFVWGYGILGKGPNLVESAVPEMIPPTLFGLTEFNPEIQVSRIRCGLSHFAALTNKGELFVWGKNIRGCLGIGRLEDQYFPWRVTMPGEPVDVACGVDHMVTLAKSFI
UniProt P48382: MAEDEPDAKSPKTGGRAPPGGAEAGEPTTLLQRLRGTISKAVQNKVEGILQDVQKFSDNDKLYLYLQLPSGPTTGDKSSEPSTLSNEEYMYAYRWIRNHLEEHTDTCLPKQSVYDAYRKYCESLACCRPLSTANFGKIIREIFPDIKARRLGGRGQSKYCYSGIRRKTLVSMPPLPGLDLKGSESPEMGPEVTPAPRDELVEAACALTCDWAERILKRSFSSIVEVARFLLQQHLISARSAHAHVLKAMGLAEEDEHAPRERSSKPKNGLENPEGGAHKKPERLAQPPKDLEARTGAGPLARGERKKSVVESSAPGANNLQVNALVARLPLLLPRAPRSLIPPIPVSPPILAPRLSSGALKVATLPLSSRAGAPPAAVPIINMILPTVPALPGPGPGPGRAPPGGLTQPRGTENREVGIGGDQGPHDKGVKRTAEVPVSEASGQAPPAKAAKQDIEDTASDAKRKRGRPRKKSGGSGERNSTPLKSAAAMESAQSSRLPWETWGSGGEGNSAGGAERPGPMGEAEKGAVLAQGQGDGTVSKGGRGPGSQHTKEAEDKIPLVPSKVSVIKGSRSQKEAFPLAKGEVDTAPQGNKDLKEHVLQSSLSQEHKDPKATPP
UniProt Q5T160: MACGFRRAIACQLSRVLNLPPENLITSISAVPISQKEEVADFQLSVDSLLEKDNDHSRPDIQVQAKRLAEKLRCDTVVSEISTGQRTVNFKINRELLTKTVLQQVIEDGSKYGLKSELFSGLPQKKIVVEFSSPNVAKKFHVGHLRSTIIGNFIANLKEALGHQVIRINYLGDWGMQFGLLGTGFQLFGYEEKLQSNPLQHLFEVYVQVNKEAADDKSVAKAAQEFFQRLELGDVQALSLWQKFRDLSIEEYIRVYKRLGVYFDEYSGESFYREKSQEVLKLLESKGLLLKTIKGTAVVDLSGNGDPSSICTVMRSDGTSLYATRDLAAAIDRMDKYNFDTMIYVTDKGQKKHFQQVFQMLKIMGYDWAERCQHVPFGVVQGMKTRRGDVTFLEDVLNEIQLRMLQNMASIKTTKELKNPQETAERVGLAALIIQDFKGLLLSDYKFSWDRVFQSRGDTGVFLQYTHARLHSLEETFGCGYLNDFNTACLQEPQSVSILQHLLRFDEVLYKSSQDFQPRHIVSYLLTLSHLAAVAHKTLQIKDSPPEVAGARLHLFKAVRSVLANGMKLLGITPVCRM
UniProt Q6JBY9, whole entry, looked up: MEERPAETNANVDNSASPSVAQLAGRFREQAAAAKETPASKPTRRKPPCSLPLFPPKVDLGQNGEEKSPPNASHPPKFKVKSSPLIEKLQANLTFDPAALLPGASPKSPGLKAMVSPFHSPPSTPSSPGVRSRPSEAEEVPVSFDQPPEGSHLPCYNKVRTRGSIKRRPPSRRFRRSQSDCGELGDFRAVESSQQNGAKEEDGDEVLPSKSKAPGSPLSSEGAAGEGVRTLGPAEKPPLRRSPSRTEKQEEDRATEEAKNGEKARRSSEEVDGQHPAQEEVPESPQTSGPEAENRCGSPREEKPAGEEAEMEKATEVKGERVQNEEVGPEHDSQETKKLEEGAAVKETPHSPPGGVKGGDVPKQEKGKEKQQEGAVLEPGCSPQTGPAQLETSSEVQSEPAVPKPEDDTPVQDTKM
UniProt Q9NW64: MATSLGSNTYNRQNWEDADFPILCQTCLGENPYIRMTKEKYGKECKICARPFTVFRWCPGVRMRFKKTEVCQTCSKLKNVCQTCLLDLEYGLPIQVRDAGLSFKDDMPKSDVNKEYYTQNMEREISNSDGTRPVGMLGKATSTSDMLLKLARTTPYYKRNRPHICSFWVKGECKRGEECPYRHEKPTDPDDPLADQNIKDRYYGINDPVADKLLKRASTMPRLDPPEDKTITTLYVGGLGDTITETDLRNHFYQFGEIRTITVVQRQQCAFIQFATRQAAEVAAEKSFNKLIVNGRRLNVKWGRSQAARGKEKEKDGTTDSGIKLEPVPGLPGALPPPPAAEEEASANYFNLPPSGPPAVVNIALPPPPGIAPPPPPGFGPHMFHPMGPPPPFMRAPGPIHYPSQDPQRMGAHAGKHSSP

What was measured:
Experiment in all cases: log2 fold change, soluble protein after heating vs DMSO (PISA); higher = thermal stabilisation; K562 lysate, 10 uM; active = over 0.2 and 3.5 SD of the protein, either way, in both replicates (recomputed)
vemurafenib = compound: CCCS(=O)(=O)Nc1ccc(F)c(C(=O)c2c[nH]c3ncc(-c4ccc(Cl)cc4)cc23)c1F [vemurafenib]
In short: (§1)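 Values give the log-two fold change in thermal stability against solvent controls, from duplicates. Crude K562 extract at 1 mg/mL protein, made by dounce homogenisation in PBS pH 7.4 with 1 mM MgCl2, was treated with 10 μM compound for 30 min. After 3 min heating across 48°C-58°C, aliquots were pooled, adjusted to 0.5% NP-40 at 4°C and centrifuged at 21,000xg for 90 min. The supernatant was measured by TMTpro 16plex LC-MS/MS with channel sums equalised.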

[1] = compound: CCCS(=O)(=O)Nc1ccc(F)c(C(=O)c2c[nH]c3ncc(Cl)cc23)c1F
In short: as §1

barasertib = compound: CCN(CCCOc1ccc2c(Nc3cc(CC(=O)Nc4cccc(F)c4)[nH]n3)ncnc2c1)CCOP(=O)(O)O [barasertib]
In short: as §1

[2] = compound: CC[C@@H]1C(=O)N(C)c2cnc(Nc3ccc(C(=O)NC4CCN(C)CC4)cc3OC)nc2N1C1CCCC1
In short: as §1

volasertib = compound: CC[C@@H]1C(=O)N(C)c2cnc(Nc3ccc(C(=O)N[C@H]4CC[C@H](N5CCN(CC6CC6)CC5)CC4)cc3OC)nc2N1C(C)C [volasertib]
In short: as §1

[3] = compound: CCn1c(C(=O)N(C2CC2)C2CC2)cc2c3c(ncn3C)c(Nc3cc(C)n(C)n3)nc21
In short: as §1

[4] = compound: CCn1cc(-c2ccnc3[nH]c(-c4cccc(CN(C)C)c4)cc23)c(-c2ccc(NC(=O)N(C)C)cc2)n1
In short: as §1

[5] = compound: CN1CCC(CNc2ccc3ncc(-c4cccc(OC(F)(F)F)c4)n3n2)CC1
In short: as §1

saracatinib = compound: CN1CCN(CCOc2cc(OC3CCOCC3)c3c(Nc4c(Cl)ccc5c4OCO5)ncnc3c2)CC1 [saracatinib]
In short: as §1

sotrastaurin = compound: CN1CCN(c2nc(C3=C(c4c[nH]c5ccccc45)C(=O)NC3=O)c3ccccc3n2)CC1 [sotrastaurin]
In short: as §1

Measured: log2 fold change

RBM15 (UniProt Q96T37)
inactive: vemurafenib 0.064 | [1] 0.077 | barasertib 0.155 | [2] 0.131 | volasertib 0.001 | [3] -0.156 | [4] -0.063 | [5] 0.074 | saracatinib 0.024 | sotrastaurin -0.029

RCCD1 (UniProt A6NED2)
inactive: vemurafenib -0.165 | [1] -0.003 | barasertib -0.059 | [2] 0.049 | volasertib 0.023 | [3] 0.039 | [4] -0.01 | [5] 0.053 | saracatinib 0.014 | sotrastaurin -0.047

RELCH isoform 2 (UniProt Q9P260)
inactive: vemurafenib 0.053 | [1] 0.009 | barasertib 0.025 | [2] 0.044 | volasertib -0.044 | [3] 0.066 | [4] 0.001 | [5] -0.06 | saracatinib 0.026 | sotrastaurin 0.015

RFC3 (UniProt P40938)
inactive: vemurafenib 0.021 | [1] 0.025 | barasertib 0.046 | [2] -0.033 | volasertib -0.065 | [3] 0.013 | [4] 0.133 | [5] 0.001 | saracatinib 0.001 | sotrastaurin 0.039

REEP5 (UniProt Q00765)
inactive: vemurafenib -0.008 | [1] -0.006 | barasertib -0.008 | [2] 0.073 | volasertib 0.023 | [3] 0.027 | [4] -0.051 | [5] 0.026 | saracatinib 0.017 | sotrastaurin -0.02

REEP4 (UniProt Q9H6H4)
inactive: vemurafenib 0.058 | [1] 0.008 | barasertib -0.073 | [2] 0.007 | volasertib -0.037 | [3] 0.011 | [4] 0 | [5] -0.115 | saracatinib 0.036 | sotrastaurin -0.053

RBL1 (UniProt P28749)
inactive: vemurafenib 0.084 | [1] 0.082 | barasertib 0.049 | [2] 0.061 | volasertib 0.006 | [3] 0 | [4] -0.034 | [5] 0.091 | saracatinib -0.118 | sotrastaurin -0.084

RBCK1 (UniProt Q9BYM8)
inactive: vemurafenib -0.149 | [1] 0.053 | barasertib 0.045 | [2] -0.019 | volasertib 0.016 | [3] -0.001 | [4] 0.191 | [5] -0.092 | saracatinib 0.028 | sotrastaurin 0.033

RCOR3 isoform 3 (UniProt Q9P2K3)
inactive: vemurafenib -0.03 | [1] -0.01 | barasertib -0.003 | [2] -0.001 | volasertib -0.012 | [3] 0.029 | [4] -0.017 | [5] 0.003 | saracatinib 0.03 | sotrastaurin -0.015

RBM4 (UniProt Q9BWF3)
inactive: vemurafenib -0.013 | [1] -0.042 | barasertib 0.023 | [2] -0.053 | volasertib -0.032 | [3] 0.045 | [5] -0.044 | saracatinib -0.013 | sotrastaurin -0.015
active: [4] 0.344

RENBP (UniProt P51606)
inactive: vemurafenib 0.057 | [1] 0.023 | barasertib -0.005 | [2] 0.007 | volasertib 0.011 | [3] -0.033 | [4] -0.065 | [5] 0.038 | saracatinib 0.053 | sotrastaurin -0.057

RETREG3 (UniProt Q86VR2)
inactive: vemurafenib 0.028 | [1] 0.006 | barasertib 0.038 | [2] 0.005 | volasertib 0.014 | [3] -0.054 | [4] 0.161 | [5] -0.116 | saracatinib -0.006 | sotrastaurin -0.029

RBBP5 (UniProt Q15291)
inactive: vemurafenib -0.03 | [1] 0.014 | barasertib -0.009 | [2] 0.051 | volasertib 0.018 | [3] -0.029 | [4] 0.002 | [5] 0.013 | saracatinib -0.03 | sotrastaurin 0.032

RCN3 (UniProt Q96D15)
inactive: vemurafenib 0.038 | [1] 0.084 | barasertib 0.07 | [2] -0.009 | volasertib -0.015 | [3] 0.008 | [4] -0.126 | [5] 0.091 | saracatinib 0.033 | sotrastaurin -0.09

RBM23 isoform 2 (UniProt Q86U06)
inactive: vemurafenib 0.2 | [1] 0.02 | barasertib 0.234 | [2] -0.153 | volasertib -0.011 | [3] 0.058 | [4] -0.01 | [5] -0.143 | saracatinib 0.064 | sotrastaurin 0.131

RFXAP (UniProt O00287)
inactive: vemurafenib -0.02 | [1] -0.044 | barasertib 0.036 | [2] 0.095 | volasertib 0.003 | [3] -0.013 | [4] 0.47 | [5] 0.036 | saracatinib -0.024 | sotrastaurin 0.058

RBM19 (UniProt Q9Y4C8)
inactive: vemurafenib 0 | [1] 0.022 | barasertib 0.115 | [2] -0.002 | volasertib 0.105 | [3] -0.093 | [4] -0.035 | [5] 0.067 | saracatinib -0.084 | sotrastaurin -0.026

RCC1L (UniProt Q96I51)
inactive: vemurafenib 0.002 | [1] 0.028 | barasertib 0.018 | [2] -0.033 | volasertib -0.006 | [3] 0.002 | [4] -0.016 | [5] 0.048 | saracatinib -0.029 | sotrastaurin 0.012

RFX5 (UniProt P48382)
inactive: vemurafenib -0.041 | [1] 0.027 | barasertib 0.044 | [2] -0.01 | volasertib -0.018 | [3] -0.025 | [4] 0.065 | [5] -0.014 | saracatinib -0.057 | sotrastaurin -0.045

RAPGEF5, A0A590UJR0
inactive: vemurafenib 0.138 | [1] -0.116 | barasertib -0.003 | [2] 0.189 | volasertib 0.009 | [3] 0 | [4] -0.15 | [5] 0.038 | saracatinib 0.001 | sotrastaurin -0.015

RBM26 isoform 2 (UniProt Q5T8P6)
inactive: vemurafenib 0.012 | [1] 0.014 | barasertib 0.032 | [2] -0.005 | volasertib -0.008 | [3] 0.011 | [4] 0.138 | [5] -0.124 | saracatinib 0.027 | sotrastaurin 0.021

RARS2 (UniProt Q5T160)
inactive: vemurafenib 0.021 | [1] 0 | barasertib 0.082 | [2] -0.016 | volasertib -0.081 | [3] -0.011 | [4] -0.058 | [5] -0.174 | saracatinib -0.006 | sotrastaurin 0.003

REV1 (UniProt Q9UBZ9)
inactive: vemurafenib -0.156 | [1] 0.033 | barasertib -0.102 | [2] -0.156 | volasertib 0.004 | [3] 0.032 | [4] 0.049 | [5] -0.023 | saracatinib 0.003 | sotrastaurin 0.002

RBBP8 isoform 2 (UniProt Q99708)
inactive: vemurafenib 0.002 | [1] 0.182 | barasertib -0.013 | [2] 0.079 | volasertib -0.019 | [3] -0.065 | [4] 0.065 | [5] -0.021 | saracatinib 0.018 | sotrastaurin -0.017

RCSD1 (UniProt Q6JBY9)
inactive: vemurafenib 0.022 | [1] 0.003 | barasertib -0.024 | [2] 0.05 | volasertib 0.02 | [3] -0.028 | [4] 0.003 | [5] 0.005 | saracatinib -0.007 | sotrastaurin 0.035

Reprinted at random: two entries already listed, in no set order.
RCSD1 (UniProt Q6JBY9)
inactive: vemurafenib 0.022 | [1] 0.003 | barasertib -0.024 | [2] 0.05 | volasertib 0.02 | [3] -0.028 | [4] 0.003 | [5] 0.005 | saracatinib -0.007 | sotrastaurin 0.035

RBM26 isoform 2 (UniProt Q5T8P6)
inactive: vemurafenib 0.012 | [1] 0.014 | barasertib 0.032 | [2] -0.005 | volasertib -0.008 | [3] 0.011 | [4] 0.138 | [5] -0.124 | saracatinib 0.027 | sotrastaurin 0.021

Additional entries.

RER1 (UniProt O15258)
inactive: vemurafenib -0.021 | [1] -0.008 | barasertib 0.021 | [2] 0.061 | volasertib 0.049 | [3] -0.002 | [4] -0.141 | [5] 0.035 | saracatinib -0.031 | sotrastaurin 0.026

RBM22 (UniProt Q9NW64)
inactive: vemurafenib -0.014 | [1] -0.007 | barasertib 0.022 | [2] 0.078 | volasertib -0.004 | [3] -0.004 | [4] 0.058 | [5] 0.025 | saracatinib 0.01 | sotrastaurin -0.08
